Article PMC7985445, “Characterization of Plasmodium falciparum Pantothenate Kinase and Identification of Its Inhibitors From Natural Products” (Frontiers in Cellular and Infection Microbiology, 2021)

Tested on: Plasmodium falciparum sensitive strain 3D7
Assay: P. falciparum asexual blood stage growth, diaphorase-coupled LDH assay
Assay type: cell-based
Conditions: ratio enzyme IC50 / parasite IC50

Row | Compound | fold lower IC50 against P. falciparum cells compared to the PfPanK1 enzyme [fold] | fold lower IC50 against P. falciparum cells compared to the PfPanK1 enzyme (listed as simaomicin α)
1 | OC[C@H]1O[C@@H](Oc2ccc(/C=C/c3cc(O)c4c(c3)O[C@H](c3ccc(O)cc3)[C@H]4c3cc(O)cc(O)c3)cc2)[C@H](O)[C@@H](O)[C@@H]1O [Gnemonoside D] | > 10 | –
2 | COc1c2c(c(O)c3c(=O)c4c(oc13)[C@@H](O)CC[C@@H]4O)-c1c3c(c4cc(C)n(C)c(=O)c4c1O)OCO[C@H]3C2 [Simaomicin α] | > 10 | more than 10,000 fold
3 | CC(=O)Oc1cccc2c(=O)c3c4c(c(=[N+]=[N-])c=3c(=O)c12)C(OC(C)=O)C(C)(OC(C)=O)C(OC(C)=O)C4OC(C)=O (stereo not shown) [Diacetylkinamycin C] | > 10 | –
